Results as given in PubChem BioAssay AID248 (DTP/NCI, 2004).
The list is a part of this screen's results and no random one: it gathers tests that were run many times, whatever their T/C, doses with no T/C, and many T/C values between a quarter and a half above the control. Other doses and runs of a compound stand elsewhere. T/C: endpoint of the treated group in % of that of the vehicle group. Some entries give survivors of the animals treated and no T/C: the source holds a T/C of zero for them, seemingly a mark for toxic or unscored doses. Some survivor counts are full or nearly so, which does not show that the dose was tolerated: the source hardly ever lists a survival T/C far under the control, and the zero likely stands for such cases as well. Counts of survivors are from the toxicity check (mostly the fifth day) where no day follows; animals may have died later. Schedules are NCI's codes, taken here to give the interval after Q, in days (D) or hours (H), and the number of doses after X. Some schedule codes hold Z or #, which are not explained here. Some doses were run more than once; the results are listed from low to high. Some structures stand for samples that the source files as different forms (salt, stereo form or complex); doses refer to the form tested. Where survival is the endpoint, this PubChem deposit counts one and a half times the control or more as active, and values a quarter to a half above the control carry no call in these data; other NCI protocols may use other cut-offs. Some T/C values are followed by the survivors on the day toxicity was checked, most often the fifth; where none is given, no animal had died by that day.

Test system: L1210 leukemia ip in BDF1 mice, survival T/C
Test: NCI In Vivo Anticancer Drug Screen. Data for tumor model L1210 Leukemia (intraperitoneal) in B6D2F1 (BDF1) mice
Conditions: T/C endpoint: mean survival time, higher T/C = longer survival
[1] = dose: 400.0 mg/kg/injection, schedule: Q01DX001 (ip), vehicle: saline
[2] = dose: 50.0 mg/kg/injection, schedule: Q01DX009 (ip), vehicle: saline
[3] = dose: 100.0 mg/kg/injection, schedule: Q01DX009 (ip), vehicle: saline
[4] = dose: 200.0 mg/kg/injection, schedule: Q04DX002 (ip), vehicle: saline with Tween-80
[5] = dose: 400.0 mg/kg/injection, schedule: Q04DX002 (ip), vehicle: saline with Tween-80
[6] = dose: 400.0 mg/kg/injection, schedule: Q04DX002 (ip), vehicle: Klucel (hydroxypropylcellulose) (HPC)
[7] = dose: 200.0 mg/kg/injection, schedule: Q04DX003 (ip), vehicle: saline with Tween-80
[8] = dose: 400.0 mg/kg/injection, schedule: Q04DX003 (ip), vehicle: saline with Tween-80
[9] = dose: 400.0 mg/kg/injection, schedule: Q01DX009 (ip), vehicle: saline with Tween-80
[10] = dose: 100.0 mg/kg/injection, schedule: Q01DX009 (ip), vehicle: saline with Tween-80
[11] = dose: 200.0 mg/kg/injection, schedule: Q01DX009 (ip), vehicle: saline with Tween-80
[12] = dose: 400.0 mg/kg/injection, schedule: Q01DX009 (ip), vehicle: Klucel (hydroxypropylcellulose) (HPC)
[13] = dose: 400.0 mg/kg/injection, schedule: Q04DX003 (ip), vehicle: Klucel (hydroxypropylcellulose) (HPC)
[14] = dose: 50.0 mg/kg/injection, schedule: Q01DX009 (ip), vehicle: saline with Tween-80
[15] = dose: 100.0 mg/kg/injection, schedule: Q04DX002 (ip), vehicle: saline with Tween-80

NC1(C(=O)O)CSSC1
survivor count (dose: 100.0 mg/kg/injection, schedule: Q01DX005 (ip), vehicle: saline): 2 of 4 | survivor count (dose: 200.0 mg/kg/injection, schedule: Q01DX005 (ip), vehicle: saline): 0 of 3 | survivor count [1]: 1 of 4 | survivor count (dose: 400.0 mg/kg/injection, schedule: Q01DX005 (ip), vehicle: saline): 0 of 3

O=C(C=C(C(F)(F)F)C(F)(F)F)c1cccs1
survivor count [2]: 1 of 6 | survivor count [3]: 2 of 6 | survivor count (dose: 200.0 mg/kg/injection, schedule: Q04DX003 (ip), vehicle: saline): 5 of 6 | survivor count (dose: 400.0 mg/kg/injection, schedule: Q04DX003 (ip), vehicle: saline): 2 of 6

O=C(O)c1c(O)c2cc([N+](=O)[O-])ccc2oc1=O
survivor count [4]: 1 of 3 | survivor count [5]: 0 of 3

Cc1cccc(OCC(O)CN(Cc2ccsc2)c2ccccn2)c1 (centres undefined)
survivor count [6]: 0 of 3

C1CCC2[N-]CC3CCCCC3[N-]CC3CCCCC3[N-]CC3CCCCC3[N-]CC2C1.CO.[Co+3] (centres undefined)
survivor count [6]: 1 of 3

COc1ccc(CC2=NCCN2)cc1
survivor count [7]: 2 of 6 | survivor count [8]: 0 of 6

C=CCNC(=S)Nc1cccc(C(C)OC(=O)NC(C)(C)C)c1 (centres undefined)
survivor count [9]: 0 of 6

COc1ccc2c3c(c4cc(OC)c(OC)cc4c2c1)C[C@H]1CCCCN1C3
T/C (dose: 1.0 mg/kg/injection, schedule: Q01DX Z (ip), vehicle: other): 140 % of control | survivor count (dose: 1.5 mg/kg/injection, schedule: Q01DX Z (ip), vehicle: saline): 5 of 6 | survivor count (dose: 2.0 mg/kg/injection, schedule: Q01DX Z (ip), vehicle: carboxymethylcellulose (CMC)): 0 of 6 | survivor count (dose: 4.0 mg/kg/injection, schedule: Q01DX Z (ip), vehicle: carboxymethylcellulose (CMC)): 0 of 6 | survivor count (dose: 8.0 mg/kg/injection, schedule: Q01DX001 (ip), vehicle: saline): 1 of 4

CN(C)CCCN1c2cc(Cl)ccc2Sc2ccc(Cl)cc21
survivor count [6]: 0 of 3

CN(C)c1ccnc(Cl)n1
survivor count (dose: 500.0 mg/kg/injection, schedule: Q01DX Z (ip), vehicle: methylcellulose (MC)): 0 of 6

O=S(=O)(F)c1cc(Cl)ccc1C[P+](c1ccccc1)(c1ccccc1)c1ccccc1
survivor count (dose: 40.0 mg/kg/injection, schedule: Q04DX003 (ip), vehicle: saline): 4 of 6

Clc1ccc(-c2cc(=[N+]3CCOCC3)ss2)cc1
survivor count (dose: 400.0 mg/kg/injection, schedule: Q01DX009 (ip), vehicle: water): 3 of 6

CC(=O)CC(=O)CCc1ccccc1.CC(=O)CC(=O)CCc1ccccc1.[Cu]
survivor count (dose: 150.0 mg/kg/injection, schedule: Q01DX001 (ip), vehicle: carboxymethylcellulose (CMC)): 2 of 6 | survivor count (dose: 300.0 mg/kg/injection, schedule: Q01DX001 (ip), vehicle: carboxymethylcellulose (CMC)): 1 of 6

CC(=O)Oc1ccc(/C=N/NC(N)=S)nc1
T/C (dose: 100.0 mg/kg/injection, schedule: Q04DX003 (ip), vehicle: saline with Tween-80): 135 % of control | T/C [7]: 135 % of control | T/C [8]: 127 % of control

CCN(CC)CCC(=O)c1ccccc1
survivor count [10]: 0 of 3 | survivor count [11]: 0 of 3 and 0 of 6 | survivor count [9]: 0 of 6

O=C(O)/C(=C\c1ccc([N+](=O)[O-])cc1)c1cccc(Cl)c1
survivor count [12]: 1 of 3 and 3 of 6 | survivor count [6]: 1 of 3

CN(C)CCCNc1c2ccccc2nc2ccc(F)cc12
survivor count (dose: 40.0 mg/kg/injection, schedule: Q01DX001 (ip), vehicle: saline): 4 of 4 | survivor count (dose: 80.0 mg/kg/injection, schedule: Q01DX001 (ip), vehicle: saline): 0 of 4

CN(CCN1CCCCC1)C(=O)C(O)(c1ccccc1)C1CCCCC1 (centres undefined)
survivor count (dose: 300.0 mg/kg/injection, schedule: Q01DX001 (ip), vehicle: saline): 1 of 6

CCN(CC)CCCCCOC(=O)c1ccccc1
T/C (dose: 100.0 mg/kg/injection, schedule: Q01DX009 (ip), vehicle: Klucel (hydroxypropylcellulose) (HPC)): 127 % of control | survivor count [13]: 0 of 6

O=C1CN(CCN2CC(=O)NC2=S)C(=S)N1
survivor count [5]: 0 of 3

NC(=S)NNc1ccccn1
survivor count (dose: 25.0 mg/kg/injection, schedule: Q01DX009 (ip), vehicle: saline): 1 of 3 | survivor count [2]: 0 of 3 | survivor count (dose: 200.0 mg/kg/injection, schedule: Q04DX002 (ip), vehicle: saline): 0 of 3 | survivor count (dose: 400.0 mg/kg/injection, schedule: Q04DX002 (ip), vehicle: saline): 0 of 3

CNC(=O)Oc1cccc2c1OC(C)(C)C2
survivor count (dose: 6.25 mg/kg/injection, schedule: Q01DX001 (ip), vehicle: Klucel (hydroxypropylcellulose) (HPC)): 1 of 6 | survivor count (dose: 12.5 mg/kg/injection, schedule: Q01DX001 (ip), vehicle: Klucel (hydroxypropylcellulose) (HPC)): 0 of 6 | survivor count (dose: 25.0 mg/kg/injection, schedule: Q01DX001 (ip), vehicle: Klucel (hydroxypropylcellulose) (HPC)): 0 of 6 | survivor count (dose: 50.0 mg/kg/injection, schedule: Q01DX001 (ip), vehicle: Klucel (hydroxypropylcellulose) (HPC)): 0 of 6 | survivor count (dose: 100.0 mg/kg/injection, schedule: Q01DX001 (ip), vehicle: Klucel (hydroxypropylcellulose) (HPC)): 1 of 6 | survivor count (dose: 200.0 mg/kg/injection, schedule: Q01DX001 (ip), vehicle: Klucel (hydroxypropylcellulose) (HPC)): 0 of 6 | survivor count (dose: 400.0 mg/kg/injection, schedule: Q01DX001 (ip), vehicle: Klucel (hydroxypropylcellulose) (HPC)): 0 of 6

CC(C)(C)N=Cc1ccccc1O.CC(C)(C)N=Cc1ccccc1O.[Cu]
survivor count (dose: 100.0 mg/kg/injection, schedule: Q04DX003 (ip), vehicle: Klucel (hydroxypropylcellulose) (HPC)): 0 of 6 | survivor count (dose: 200.0 mg/kg/injection, schedule: Q04DX003 (ip), vehicle: Klucel (hydroxypropylcellulose) (HPC)): 2 of 6 | survivor count [13]: 0 of 6

CN(C)CCOC(=O)c1ccc(CCl)cc1
survivor count (dose: 350.0 mg/kg/injection, schedule: Q01DX009 (ip), vehicle: saline): 4 of 6

C1CN=C2CCCN2C1
survivor count (dose: 75.0 mg/kg/injection, schedule: Q01DX009 (ip), vehicle: saline): 2 of 6 | survivor count (dose: 150.0 mg/kg/injection, schedule: Q01DX009 (ip), vehicle: saline): 0 of 6

ClCc1nc2ccc(Cl)cc2[nH]1
survivor count (dose: 400.0 mg/kg/injection, schedule: Q01DX001 (ip), vehicle: other): 2 of 4

O=C(Nc1ccc(Cl)c(Cl)c1)c1ccco1
T/C (dose: 25.0 mg/kg/injection, schedule: Q01DX009 (ip), vehicle: saline with Tween-80): 88, 95, 95 [5 of 6 alive], 109 % of control | T/C [14]: 87 [2 of 3 alive], 102 [5 of 6 alive], 103 % of control [2 of 3 alive] | survivor count [14]: 4 of 6 | survivor count [10]: 2 of 3 | T/C [15]: 97 [2 of 3 alive], 101 [5 of 6 alive], 103 % of control [4 of 6 alive] | survivor count [15]: 1 of 3 | survivor count [4]: 1 of 6 and 1 of 3 | survivor count [5]: 0 of 3 and 0 of 6

COC(=O)c1ccc([N+](=O)[O-])o1
survivor count [12]: 1 of 3

C#CCOC(=O)C(Cl)(Cl)Cl
survivor count (dose: 400.0 mg/kg/injection, schedule: Q04DX002 (ip), vehicle: other): 1 of 3

CNNC(=O)Cc1ccc(OC)cc1
survivor count [3]: 1 of 6 | survivor count (dose: 200.0 mg/kg/injection, schedule: Q01DX009 (ip), vehicle: saline): 0 of 6 | survivor count [1]: 1 of 6

CCC1=C2C(=O)c3ccccc3C2=C(C)S(=O)(=O)O1
survivor count [10]: 5 of 6 | survivor count [11]: 2 of 6 | survivor count [8]: 1 of 6
